In the test the test system is primary human hepatic stellate cells (donor 1). In words: percent Bodipy-positive cells; higher = more lipid droplet accumulation. To be noted: 48 h.
Setting [1] is: library stock concentration: 1 mM.
The mark [2] stands for this setting: library stock concentration: 3.33 mM.
[3] abbreviates: library stock concentration: 10 mM.
Setting [4] is: library stock concentration: 80 uM.
Setting [5] is: library stock concentration: 400 uM.
The mark [6] stands for this setting: library stock concentration: 2 mM.

Values joined by “and” are separate entries in the source; they are usually repeats but may differ in a detail not shown here. Equal values may be shown once. Where a name gives a salt, the structure may show the parent alone. ± gives the standard deviation of the averaged measurements. Some of the results follow. Plates or batches differ in their baseline, so values are only roughly comparable.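 Primary human stellate myofibroblasts activated in culture; inactivation shown by regained lipid droplets. Readout: fraction of Hoechst-counted cells exceeding a per-plate Bodipy threshold, duplicate wells, each plate with DMSO negative and nortriptyline positive controls. Hits: control-normalized score beyond the plate's top-tenth-percentile nortriptyline wells, or among its three best wells. Final well concentrations unstated.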

We go through 39 compounds from the supplement of paper PMC9135407.

As to `CCOC(=O)c1ccnc(C(=O)OCC)c1`, the “percent Bodipy-positive cells” value under setting [1] turned out to be 13.2 ± 6.3%. Consider `CCC(=O)O[C@]1(C(=O)SCF)[C@H](C)C[C@H]2[C@@H]3C[C@H](F)C4=CC(=O)C=C[C@]4(C)[C@@]3(F)[C@@H](O)C[C@@]21C` [Fluticasone propionate], for which the “percent Bodipy-positive cells” value turned out to be 6.03 ± 0.066%. Besides, the “percent Bodipy-positive cells” value under setting [2] worked out at 62.3 ± 4.4%. Further, the “percent Bodipy-positive cells” value under setting [3] was 85.3% and 63.7%.

As to `CCC(=O)O[C@]1(C(=O)SCF)[C@H](C)C[C@H]2[C@@H]3C[C@H](F)C4=CC(=O)C=C[C@]4(C)[C@@]3(F)[C@@H](O)C[C@@]21C`, under setting [3], the “percent Bodipy-positive cells” value is 52.4 ± 4.7%. Regarding `C[N+]1(C)CCCC1C(=O)O` (configuration not stated) [Stachydrine hydrochloride], the “percent Bodipy-positive cells” value was found to be 31.3 ± 0.94%. With `Cl.OCCN1CCN(CC/C=C2/c3ccccc3Sc3ccc(Cl)cc32)CC1` [Zuclopenthixol hydrochloride], the “percent Bodipy-positive cells” value came out at 66.8 ± 7.9%. With `NS(=O)(=O)c1nn2cc(-c3ccccc3)nc2s1`, the “percent Bodipy-positive cells” value under setting [3] is 34.206 ± 0.0064%. For `CCc1cc(Cl)c(OC)c(C(=O)NC[C@@H]2CCCN2CC)c1O`, the “percent Bodipy-positive cells” value under setting [3] is 70.4 ± 3.3%. As for `CC1=CC(=O)C2=C(C)CC[C@@H]3[C@H](OC(=O)[C@H]3C)[C@@H]12` [Leucomisine], the “percent Bodipy-positive cells” value amounted to 10.3 ± 1.2%.

`CN(C)CCOC(=O)C(c1ccccc1)C1(O)CCCC1` (configuration not stated) [Cyclopentolate hydrochloride]: the “percent Bodipy-positive cells” value came out at 13 ± 4.3%. The “percent Bodipy-positive cells” value (library stock concentration: 6.1 mM) was found to be 2.4 ± 0.57%. The “percent Bodipy-positive cells” value under setting [3] was determined as 23.9 ± 1.2%. Consider `Nc1ccc(/N=N/c2ccccc2)c(N)n1` [Phenazopyridine HCl], for which the “percent Bodipy-positive cells” value under setting [2] came to 5.15 ± 1.2% and the “percent Bodipy-positive cells” value under setting [3] was 11.8 ± 1.6%. Take `Nc1ccc(/N=N/c2ccccc2)c(N)n1` [Phenazopyridine hydrochloride]: the “percent Bodipy-positive cells” value is 3.66 ± 0.82%. For the setting “library stock concentration: 8 mM”, the “percent Bodipy-positive cells” value was found to be 3.51 ± 2.6%. Further, under setting [3], the “percent Bodipy-positive cells” value stood at 10.2 ± 3.7%. With `C[C@H](N[C@@H](CCc1ccccc1)C(=O)O)C(=O)N1Cc2ccccc2C[C@H]1C(=O)O`, the “percent Bodipy-positive cells” value under setting [3] was 35.1 ± 7.3%.

Consider `N[C@@H](CO)c1ccccc1` [(R)-(-)-2-Phenylglycinol], for which the “percent Bodipy-positive cells” value under setting [1] came to 18.3 ± 14%. As to `C=CCNc1ncnc2ccc(Br)cc12`, the “percent Bodipy-positive cells” value under setting [3] is 27.4 ± 6%.

With `OCC(CO)N[C@H]1C[C@](O)(CO)[C@@H](O)[C@H](O)[C@H]1O` [Voglibose], the “percent Bodipy-positive cells” value reads like this: under setting [2], 9.39 ± 1.3%; under setting [3], 15.5% and 6.49%. Regarding `CC(C)=CCC/C(C)=C/CC/C(C)=C/CSc1ccccc1C(N)=O` [Farnesyl Thiosalicylic Acid Amide], the “percent Bodipy-positive cells” value under setting [1] came out at 13.3 ± 0.36%. With `CCCCC(=O)N(Cc1ccc(-c2ccccc2-c2nnn[nH]2)cc1)[C@H](C(=O)O)C(C)C` [Valsartan], the “percent Bodipy-positive cells” value under setting [2] is 12.5 ± 1.8%.

As for `CCCCC(=O)N(Cc1ccc(-c2ccccc2-c2nnn[nH]2)cc1)[C@H](C(=O)O)C(C)C`, under setting [3], the “percent Bodipy-positive cells” value was determined as 7.05 ± 1.1%. For `COc1cc(Nc2ncc3c(n2)-c2ccc(Cl)cc2C(c2c(F)cccc2OC)=NC3)ccc1C(=O)O` [Alisertib], the “percent Bodipy-positive cells” value came out at 10.6 ± 1.5% under setting [4], 9.13 ± 1% under setting [5], 6.3 ± 2.9% under setting [6] and 7.76 ± 1.5% under setting [3]. `COc1cc(Nc2ncc3c(n2)-c2ccc(Cl)cc2C(c2c(F)cccc2OC)=NC3)ccc1C(=O)O` [Alisertib (MLN8237)]: the “percent Bodipy-positive cells” value reads like this: under setting [2], 11.2 ± 1.5%; under setting [3], 20.8 ± 3.7%. On to `OC(CCN1CCCCC1)(c1ccccc1)c1ccccc1` [Pridinol methanesulfonate salt], for which the “percent Bodipy-positive cells” value worked out at 21.8 ± 2.2%. In the case of `OC(CCN1CCCCC1)(c1ccccc1)c1ccccc1` [Pridinol methanesulfonate], the “percent Bodipy-positive cells” value under setting [3] was found to be 45.2 ± 24%. Take `CC(=Nc1ccccc1N)c1c(C)cc(=O)n(O)c1O`: the “percent Bodipy-positive cells” value under setting [3] was 8.04 ± 4.8%. For the compound `CCCCC[C@](C)(O)/C=C/[C@H]1C(=O)C[C@H](O)[C@@H]1C/C=C\CCCC(=O)O` [15(S)-15-methyl Prostaglandin D2], under setting [1], the “percent Bodipy-positive cells” value was found to be 12.5 ± 3.1%.

Consider `CCc1ccc(/C=C2/SC(=S)NC2=O)cc1`, for which the “percent Bodipy-positive cells” value under setting [2] was 30.1 ± 7.8%; the “percent Bodipy-positive cells” value under setting [3] was 28.3% and 33.2%. As to `CC1(COc2ccc3c(c2)ncn3-c2ccc3cccc(N4CCC(N)CC4)c3n2)COC1`, the “percent Bodipy-positive cells” value under setting [2] amounted to 97.5 ± 1%. Take `CCN(CC)CCNC(=O)c1cc(Br)c(N)cc1OC` [Bromopride]: the “percent Bodipy-positive cells” value was 11.2 ± 0.71%. Moreover, the “percent Bodipy-positive cells” value under setting [3] was found to be 34 ± 9.8%. Turning to `O=c1cc(N2CCOCC2)oc2c(-c3ccccc3)cccc12` [LY-294,002 hydrochloride], the “percent Bodipy-positive cells” value under setting [3] stood at 26.5 ± 1.9%.

On to `O=c1cc(N2CCOCC2)oc2c(-c3ccccc3)cccc12`, for which the “percent Bodipy-positive cells” value was 6.6 ± 2% under setting [1]; 7.3% and 8.17% under setting [2]; 11.9% and 6.6% under setting [3]; 15.2 ± 9.9% (library stock concentration: 16.3 mM). In the case of `COc1cccc(-c2cc(F)ccc2C2Cc3nc(N)nc(C)c3C(=O)N2)n1` (configuration not stated), under setting [2], the “percent Bodipy-positive cells” value worked out at 88.95 ± 0.25%. For the compound `CCOC(N)=O` [Urethane], the “percent Bodipy-positive cells” value reads like this: under setting [3], 39.6 ± 1.5%; (library stock concentration: 22.4 mM) 10.4 ± 0.51%. As to `O=C(O)CCCCCCC1C(=O)NC(=O)N1CCC(O)C1CCCCC1` (configuration not stated), the “percent Bodipy-positive cells” value under setting [1] was 7.87% and 8.07%.

For `O=C1c2cccc(O)c2C(=O)c2c(O)cccc21` [Danthron], where the note is “library stock concentration: 8.3 mM”, the “percent Bodipy-positive cells” value was 5.27 ± 0.38%.

Consider `Cc1c(C(=O)Nc2ccc(N3C[C@@H](C)O[C@@H](C)C3)nc2)cccc1-c1ccc(OC(F)(F)F)cc1` [LDE225 (NVP-LDE225,Erismodegib)], for which the “percent Bodipy-positive cells” value reads like this: under setting [2], 28 ± 8%; under setting [3], 93.8 ± 3.9%. On to `Nc1cc(C(F)(F)F)c(-c2cc(N3CCOCC3)nc(N3CCOCC3)n2)cn1`, for which the “percent Bodipy-positive cells” value is 13.3 ± 0.49% under setting [4], 9.06 ± 1.6% under setting [5], 6.1 ± 0.39% under setting [6] and 25.3 ± 3.6% under setting [3]. Take `Nc1cc(C(F)(F)F)c(-c2cc(N3CCOCC3)nc(N3CCOCC3)n2)cn1` [BKM120 (NVP-BKM120, Buparlisib)]: the “percent Bodipy-positive cells” value is, setting by setting: under setting [2], 11 ± 0.12%; under setting [3], 36.6 ± 12%.

Consider `CC(C)NNC(=O)c1ccncc1` [Iproniazid phosphate], for which, under setting [3], the “percent Bodipy-positive cells” value amounted to 26.5 ± 10%.

In the case of `CC(C)NNC(=O)c1ccncc1` [Iproniazide phosphate], the “percent Bodipy-positive cells” value came to 20.4 ± 0.7%. For the compound `CC(C)NNC(=O)c1ccncc1` [Iproniazid sulfate], the “percent Bodipy-positive cells” value under setting [3] stood at 17.5 ± 8.6%.
